# In the supplement of paper PMC10032668:
# Amino acid sequences for entries named in this document (tags omitted).
# RBBP5, Q15291, UniProt Q15291, whole entry: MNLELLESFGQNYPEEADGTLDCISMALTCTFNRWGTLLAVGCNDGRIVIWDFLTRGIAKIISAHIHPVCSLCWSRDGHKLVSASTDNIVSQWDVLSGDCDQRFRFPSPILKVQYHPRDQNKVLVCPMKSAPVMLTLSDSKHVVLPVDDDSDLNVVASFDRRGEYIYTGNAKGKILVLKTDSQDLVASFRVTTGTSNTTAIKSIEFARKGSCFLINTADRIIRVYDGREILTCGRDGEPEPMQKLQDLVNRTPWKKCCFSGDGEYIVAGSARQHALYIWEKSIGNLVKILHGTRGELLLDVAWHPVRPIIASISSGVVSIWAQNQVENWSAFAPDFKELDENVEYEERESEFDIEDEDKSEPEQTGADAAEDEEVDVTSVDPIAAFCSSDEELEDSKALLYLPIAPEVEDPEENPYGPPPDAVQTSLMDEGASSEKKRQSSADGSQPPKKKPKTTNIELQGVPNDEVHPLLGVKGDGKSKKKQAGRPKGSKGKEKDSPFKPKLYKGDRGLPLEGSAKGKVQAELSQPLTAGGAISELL
# APEX1, P27695, UniProt P27695, whole entry: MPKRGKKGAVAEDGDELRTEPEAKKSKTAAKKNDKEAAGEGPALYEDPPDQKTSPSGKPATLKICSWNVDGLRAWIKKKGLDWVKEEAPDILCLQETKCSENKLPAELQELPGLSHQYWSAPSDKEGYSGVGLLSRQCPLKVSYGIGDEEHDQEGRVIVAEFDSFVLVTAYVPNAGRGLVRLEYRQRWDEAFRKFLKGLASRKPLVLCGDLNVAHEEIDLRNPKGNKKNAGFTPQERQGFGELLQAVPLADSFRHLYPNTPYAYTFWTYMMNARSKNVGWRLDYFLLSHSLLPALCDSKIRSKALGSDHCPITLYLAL
# CAMP, P49913, UniProt P49913, whole entry: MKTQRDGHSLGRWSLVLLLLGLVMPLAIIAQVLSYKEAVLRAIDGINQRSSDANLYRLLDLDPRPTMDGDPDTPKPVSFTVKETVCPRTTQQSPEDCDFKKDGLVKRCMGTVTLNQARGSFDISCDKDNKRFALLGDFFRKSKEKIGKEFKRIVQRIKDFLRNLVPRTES
# SRSF1, Q07955, UniProt Q07955, whole entry: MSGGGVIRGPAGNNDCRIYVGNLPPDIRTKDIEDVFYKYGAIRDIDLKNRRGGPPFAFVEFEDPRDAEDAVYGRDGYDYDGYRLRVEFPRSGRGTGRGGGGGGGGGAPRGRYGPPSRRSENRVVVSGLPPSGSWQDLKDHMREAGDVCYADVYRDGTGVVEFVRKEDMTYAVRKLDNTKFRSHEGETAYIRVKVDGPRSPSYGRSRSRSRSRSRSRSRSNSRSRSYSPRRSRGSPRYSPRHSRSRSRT
# GNL1, P36915, UniProt P36915, whole entry: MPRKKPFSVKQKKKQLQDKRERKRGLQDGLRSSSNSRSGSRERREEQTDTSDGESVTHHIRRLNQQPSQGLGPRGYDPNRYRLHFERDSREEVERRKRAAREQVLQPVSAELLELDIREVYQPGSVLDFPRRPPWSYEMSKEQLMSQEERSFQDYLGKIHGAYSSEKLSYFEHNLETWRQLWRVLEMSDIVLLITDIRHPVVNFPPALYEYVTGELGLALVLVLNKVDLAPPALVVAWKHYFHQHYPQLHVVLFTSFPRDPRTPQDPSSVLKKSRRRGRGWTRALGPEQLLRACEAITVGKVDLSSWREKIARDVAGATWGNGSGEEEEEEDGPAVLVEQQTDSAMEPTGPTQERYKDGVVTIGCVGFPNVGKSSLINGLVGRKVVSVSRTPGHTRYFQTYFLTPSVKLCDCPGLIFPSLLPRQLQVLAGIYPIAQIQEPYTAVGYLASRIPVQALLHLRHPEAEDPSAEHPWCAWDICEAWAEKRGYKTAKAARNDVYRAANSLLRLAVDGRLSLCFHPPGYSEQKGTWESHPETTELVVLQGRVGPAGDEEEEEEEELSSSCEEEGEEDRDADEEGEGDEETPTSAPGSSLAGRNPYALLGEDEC
# GRWD1, Q9BQ67, UniProt Q9BQ67, whole entry: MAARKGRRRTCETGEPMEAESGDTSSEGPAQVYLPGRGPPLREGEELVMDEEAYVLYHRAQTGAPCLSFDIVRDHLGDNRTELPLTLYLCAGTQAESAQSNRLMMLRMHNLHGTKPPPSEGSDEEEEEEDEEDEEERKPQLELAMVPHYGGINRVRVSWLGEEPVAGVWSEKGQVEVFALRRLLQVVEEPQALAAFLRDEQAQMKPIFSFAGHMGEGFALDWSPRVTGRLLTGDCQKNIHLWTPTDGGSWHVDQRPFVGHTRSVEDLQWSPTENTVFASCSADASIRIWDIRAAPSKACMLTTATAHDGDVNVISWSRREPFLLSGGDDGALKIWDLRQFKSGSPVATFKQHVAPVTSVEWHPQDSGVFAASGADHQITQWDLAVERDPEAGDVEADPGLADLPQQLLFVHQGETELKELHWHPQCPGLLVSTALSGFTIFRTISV
# SNRNP200, O75643, UniProt O75643, whole entry: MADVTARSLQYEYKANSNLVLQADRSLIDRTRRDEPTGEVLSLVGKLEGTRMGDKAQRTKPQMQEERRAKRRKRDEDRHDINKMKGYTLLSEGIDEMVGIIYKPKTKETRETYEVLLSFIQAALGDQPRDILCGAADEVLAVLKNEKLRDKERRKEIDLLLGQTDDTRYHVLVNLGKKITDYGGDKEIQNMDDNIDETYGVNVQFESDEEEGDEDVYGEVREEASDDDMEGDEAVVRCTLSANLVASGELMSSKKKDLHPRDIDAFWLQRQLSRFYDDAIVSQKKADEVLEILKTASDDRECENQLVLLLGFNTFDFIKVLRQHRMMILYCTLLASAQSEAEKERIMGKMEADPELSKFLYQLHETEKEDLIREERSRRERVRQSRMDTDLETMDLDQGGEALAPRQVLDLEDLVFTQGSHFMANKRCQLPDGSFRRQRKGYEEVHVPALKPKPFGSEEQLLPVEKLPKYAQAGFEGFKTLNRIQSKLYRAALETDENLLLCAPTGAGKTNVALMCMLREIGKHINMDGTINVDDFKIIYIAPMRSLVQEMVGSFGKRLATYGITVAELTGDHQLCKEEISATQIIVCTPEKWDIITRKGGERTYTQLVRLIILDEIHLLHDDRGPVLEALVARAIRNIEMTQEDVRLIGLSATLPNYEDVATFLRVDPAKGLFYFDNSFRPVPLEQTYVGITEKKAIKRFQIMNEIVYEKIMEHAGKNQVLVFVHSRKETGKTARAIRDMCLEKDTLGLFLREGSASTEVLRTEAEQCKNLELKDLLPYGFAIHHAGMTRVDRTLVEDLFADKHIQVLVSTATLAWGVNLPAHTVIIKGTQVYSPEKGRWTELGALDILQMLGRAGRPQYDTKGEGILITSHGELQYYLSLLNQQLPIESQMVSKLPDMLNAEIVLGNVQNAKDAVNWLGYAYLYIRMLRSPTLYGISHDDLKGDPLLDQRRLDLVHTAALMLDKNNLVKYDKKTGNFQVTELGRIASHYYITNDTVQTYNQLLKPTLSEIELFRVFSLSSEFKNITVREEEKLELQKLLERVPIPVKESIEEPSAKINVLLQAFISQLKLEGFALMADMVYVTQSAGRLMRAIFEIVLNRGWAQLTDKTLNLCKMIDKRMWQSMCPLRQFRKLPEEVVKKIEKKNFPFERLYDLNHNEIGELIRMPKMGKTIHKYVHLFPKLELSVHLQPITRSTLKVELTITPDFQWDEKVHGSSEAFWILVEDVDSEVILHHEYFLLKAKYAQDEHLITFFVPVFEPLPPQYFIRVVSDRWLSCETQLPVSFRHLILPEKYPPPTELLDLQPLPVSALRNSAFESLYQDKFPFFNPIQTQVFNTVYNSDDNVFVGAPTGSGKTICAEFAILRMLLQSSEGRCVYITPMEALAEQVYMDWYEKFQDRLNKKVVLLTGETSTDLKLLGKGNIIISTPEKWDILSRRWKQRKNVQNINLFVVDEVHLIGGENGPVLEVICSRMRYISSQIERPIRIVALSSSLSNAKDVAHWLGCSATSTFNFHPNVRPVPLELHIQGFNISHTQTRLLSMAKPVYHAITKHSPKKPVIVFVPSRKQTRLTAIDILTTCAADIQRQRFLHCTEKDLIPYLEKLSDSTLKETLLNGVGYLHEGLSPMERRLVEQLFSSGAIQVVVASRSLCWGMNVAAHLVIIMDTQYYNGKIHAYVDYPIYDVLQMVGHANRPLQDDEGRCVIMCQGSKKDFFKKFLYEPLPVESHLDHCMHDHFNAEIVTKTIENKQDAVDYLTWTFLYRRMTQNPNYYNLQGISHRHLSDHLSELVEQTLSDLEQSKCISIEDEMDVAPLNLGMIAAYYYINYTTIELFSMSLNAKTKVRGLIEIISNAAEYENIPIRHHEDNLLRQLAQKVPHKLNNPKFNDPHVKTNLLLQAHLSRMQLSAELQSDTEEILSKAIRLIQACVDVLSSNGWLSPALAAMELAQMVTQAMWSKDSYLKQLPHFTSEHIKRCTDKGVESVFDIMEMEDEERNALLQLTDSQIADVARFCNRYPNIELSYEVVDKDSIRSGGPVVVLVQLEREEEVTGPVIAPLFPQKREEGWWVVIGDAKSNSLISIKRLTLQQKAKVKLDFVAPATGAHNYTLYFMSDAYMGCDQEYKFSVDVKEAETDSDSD
# SRSF9, Q13242, UniProt Q13242, whole entry: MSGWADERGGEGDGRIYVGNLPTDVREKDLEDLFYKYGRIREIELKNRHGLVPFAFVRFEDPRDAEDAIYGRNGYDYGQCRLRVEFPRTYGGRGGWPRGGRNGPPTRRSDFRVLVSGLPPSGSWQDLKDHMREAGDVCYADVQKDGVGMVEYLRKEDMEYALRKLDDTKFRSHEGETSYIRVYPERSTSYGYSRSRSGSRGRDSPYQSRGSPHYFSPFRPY
# APLP2, Q06481, UniProt Q06481, whole entry: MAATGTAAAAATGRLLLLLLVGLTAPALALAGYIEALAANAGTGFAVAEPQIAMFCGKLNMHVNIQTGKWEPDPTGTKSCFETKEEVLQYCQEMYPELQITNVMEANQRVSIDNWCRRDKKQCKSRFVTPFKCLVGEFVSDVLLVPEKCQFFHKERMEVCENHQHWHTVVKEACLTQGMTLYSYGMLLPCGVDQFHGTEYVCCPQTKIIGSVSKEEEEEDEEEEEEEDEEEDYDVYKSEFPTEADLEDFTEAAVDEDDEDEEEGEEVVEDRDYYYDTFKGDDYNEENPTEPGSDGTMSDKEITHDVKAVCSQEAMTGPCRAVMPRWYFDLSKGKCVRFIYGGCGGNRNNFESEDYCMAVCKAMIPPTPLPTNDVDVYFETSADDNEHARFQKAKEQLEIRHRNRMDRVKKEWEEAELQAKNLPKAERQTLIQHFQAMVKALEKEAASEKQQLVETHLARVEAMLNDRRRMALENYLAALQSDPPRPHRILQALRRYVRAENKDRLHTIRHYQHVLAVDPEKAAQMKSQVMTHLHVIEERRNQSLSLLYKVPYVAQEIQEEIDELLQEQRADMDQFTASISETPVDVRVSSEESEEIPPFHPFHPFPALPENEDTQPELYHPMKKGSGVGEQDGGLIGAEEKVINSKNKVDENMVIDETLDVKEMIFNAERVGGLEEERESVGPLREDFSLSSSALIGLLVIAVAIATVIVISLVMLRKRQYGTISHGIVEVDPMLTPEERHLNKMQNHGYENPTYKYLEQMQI
# MCM2, P49736, UniProt P49736, whole entry: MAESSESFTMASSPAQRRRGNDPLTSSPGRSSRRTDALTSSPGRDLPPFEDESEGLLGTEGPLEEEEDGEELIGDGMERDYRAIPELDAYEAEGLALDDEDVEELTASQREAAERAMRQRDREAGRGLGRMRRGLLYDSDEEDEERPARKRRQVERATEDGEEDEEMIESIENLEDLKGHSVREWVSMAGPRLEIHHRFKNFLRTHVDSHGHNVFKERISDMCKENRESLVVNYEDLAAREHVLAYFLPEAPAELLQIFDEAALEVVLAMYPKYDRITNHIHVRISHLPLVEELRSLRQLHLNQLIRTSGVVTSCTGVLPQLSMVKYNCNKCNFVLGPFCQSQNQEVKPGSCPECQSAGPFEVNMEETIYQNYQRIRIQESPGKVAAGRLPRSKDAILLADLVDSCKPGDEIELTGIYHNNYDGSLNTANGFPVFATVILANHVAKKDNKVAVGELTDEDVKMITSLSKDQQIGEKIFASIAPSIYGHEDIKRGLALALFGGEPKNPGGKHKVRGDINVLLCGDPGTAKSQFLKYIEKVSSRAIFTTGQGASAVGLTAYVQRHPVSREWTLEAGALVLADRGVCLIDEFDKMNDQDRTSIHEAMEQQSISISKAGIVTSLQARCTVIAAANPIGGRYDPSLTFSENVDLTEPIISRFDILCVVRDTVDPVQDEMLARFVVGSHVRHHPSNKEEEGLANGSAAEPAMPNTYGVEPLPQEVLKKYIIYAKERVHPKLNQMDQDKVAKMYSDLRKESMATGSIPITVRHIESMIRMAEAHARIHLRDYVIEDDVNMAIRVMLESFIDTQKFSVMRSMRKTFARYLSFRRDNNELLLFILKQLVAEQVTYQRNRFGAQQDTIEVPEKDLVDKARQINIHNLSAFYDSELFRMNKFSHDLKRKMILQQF
# The other results are listed elsewhere or left out. The list holds hits alone, and they repeat only in part.
# Columns and labels:
# Test in all cases: PRISMA enrichment of interactor (LFQ) in peptide spot vs all other peptide spots (log2 fold change); higher = stronger / more specific binding of the interactor to the peptide
# AP3S1, Q92572 = target: AP3S1, Q92572
# Experimental: (§1)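 PRISMA: 15-aa overlapping tiles (offset 8 aa) of 60 microproteins, plus SOS1/GLUT1 control peptides, were spot-synthesized on cellulose membranes in triplicate. Membranes were incubated with benzonase-treated HEK293T lysate, and bound proteins were identified by LC-MS/MS with LFQ. Enrichment is the log2 fold change of each protein in one spot versus all other spots. Only interactors passing the significance cutoff are listed.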
# CDIPT, O14735 = target: CDIPT, O14735
# Experimental: as §1
# CEP290, O15078 = target: CEP290, O15078
# Experimental: as §1
# GNL2, Q13823 = target: GNL2, Q13823
# Experimental: as §1
# ODF2, Q5BJF6 = target: ODF2, Q5BJF6
# Experimental: as §1
# P3H1, Q32P28 = target: P3H1, Q32P28
# Experimental: as §1
# RBBP5, Q15291 = target: RBBP5, Q15291
# Experimental: as §1
# SAAL1, Q96ER3 = target: SAAL1, Q96ER3
# Experimental: as §1
# [1] = substrate: SPOP, O43791
# Experimental: as §1
# UBA1, P22314 = target: UBA1, P22314
# Experimental: as §1
# APEX1, P27695 = target: APEX1, P27695
# Experimental: as §1
# CAMP, P49913 = target: CAMP, P49913
# Experimental: as §1
# JAGN1, Q8N5M9 = target: JAGN1, Q8N5M9
# Experimental: as §1
# NUFIP2, Q7Z417 = target: NUFIP2, Q7Z417
# Experimental: as §1
# PABPC4, Q13310 = target: PABPC4, Q13310
# Experimental: as §1
# RRP15, Q9Y3B9 = target: RRP15, Q9Y3B9
# Experimental: as §1
# SRSF1, Q07955 = target: SRSF1, Q07955
# Experimental: as §1
# SRSF7, Q16629 = target: SRSF7, Q16629
# Experimental: as §1
# TAF15, Q92804 = target: TAF15, Q92804
# Experimental: as §1
# TRA2B, P62995 = target: TRA2B, P62995
# Experimental: as §1
# TRMT5, Q32P41 = target: TRMT5, Q32P41
# Experimental: as §1
# UTP18, Q9Y5J1 = target: UTP18, Q9Y5J1
# Experimental: as §1
# API5, Q9BZZ5 = target: API5, Q9BZZ5
# Experimental: as §1
# CPS1, P31327 = target: CPS1, P31327
# Experimental: as §1
# CSDE1, O75534 = target: CSDE1, O75534
# Experimental: as §1
# EIF1AD, Q8N9N8 = target: EIF1AD, Q8N9N8
# Experimental: as §1
# GNL1, P36915 = target: GNL1, P36915
# Experimental: as §1
# GRWD1, Q9BQ67 = target: GRWD1, Q9BQ67
# Experimental: as §1
# LARP7, Q4G0J3 = target: LARP7, Q4G0J3
# Experimental: as §1
# NEK7, Q8TDX7 = target: NEK7, Q8TDX7
# Experimental: as §1
# PHF8, Q9UPP1 = target: PHF8, Q9UPP1
# Experimental: as §1
# SNRNP200, O75643 = target: SNRNP200, O75643
# Experimental: as §1
# SNRPF, P62306 = target: SNRPF, P62306
# Experimental: as §1
# SRSF9, Q13242 = target: SRSF9, Q13242
# Experimental: as §1
# TMEM11, P17152 = target: TMEM11, P17152
# Experimental: as §1
# TRPT1, Q86TN4 = target: TRPT1, Q86TN4
# Experimental: as §1
# UBAP2, Q5T6F2 = target: UBAP2, Q5T6F2
# Experimental: as §1
# UBE2N, P61088 = target: UBE2N, P61088
# Experimental: as §1
# UTP11, Q9Y3A2 = target: UTP11, Q9Y3A2
# Experimental: as §1
# APLP2, Q06481 = target: APLP2, Q06481
# Experimental: as §1
# CDCA7, Q9BWT1 = target: CDCA7, Q9BWT1
# Experimental: as §1
# DDX1, Q92499 = target: DDX1, Q92499
# Experimental: as §1
# EIF2B2, P49770 = target: EIF2B2, P49770
# Experimental: as §1
# EIF2D, P41214 = target: EIF2D, P41214
# Experimental: as §1
# EMD, P50402 = target: EMD, P50402
# Experimental: as §1
# MCM2, P49736 = target: MCM2, P49736
# Experimental: as §1
# MDN1, Q9NU22 = target: MDN1, Q9NU22
# Experimental: as §1
# MRPL49, Q13405 = target: MRPL49, Q13405
# Experimental: as §1
# RBM12B, Q8IXT5 = target: RBM12B, Q8IXT5
# Experimental: as §1
# SMC3, Q9UQE7 = target: SMC3, Q9UQE7
# Experimental: as §1
# ZNHIT6, Q9NWK9 = target: ZNHIT6, Q9NWK9
# Experimental: as §1
binder,measurement,setting,value
MVGQRLGRWRGEAGR [PARL],PRISMA enrichment of interactor (log2),"AP3S1, Q92572",4.84
same,PRISMA enrichment of interactor (log2),"CDIPT, O14735",6.79
same,PRISMA enrichment of interactor (log2),"CEP290, O15078",5.93
same,PRISMA enrichment of interactor (log2),"GNL2, Q13823",4.88
same,PRISMA enrichment of interactor (log2),"ODF2, Q5BJF6",6.65
same,PRISMA enrichment of interactor (log2),"P3H1, Q32P28",4.13
same,PRISMA enrichment of interactor (log2),"RBBP5, Q15291",5.74
same,PRISMA enrichment of interactor (log2),"SAAL1, Q96ER3",4.23
same,PRISMA enrichment of interactor (log2),[1],4.15
same,PRISMA enrichment of interactor (log2),"UBA1, P22314",6.56
HGSSFSHKSRNATDY [RP11-12K22.1],PRISMA enrichment of interactor (log2),"APEX1, P27695",6.89
same,PRISMA enrichment of interactor (log2),"CAMP, P49913",6
same,PRISMA enrichment of interactor (log2),"JAGN1, Q8N5M9",4.38
same,PRISMA enrichment of interactor (log2),"NUFIP2, Q7Z417",5.41
same,PRISMA enrichment of interactor (log2),"PABPC4, Q13310",5.31
same,PRISMA enrichment of interactor (log2),"RRP15, Q9Y3B9",4.69
same,PRISMA enrichment of interactor (log2),"SRSF1, Q07955",5.78
same,PRISMA enrichment of interactor (log2),"SRSF7, Q16629",6.73
same,PRISMA enrichment of interactor (log2),"TAF15, Q92804",4.88
same,PRISMA enrichment of interactor (log2),"TRA2B, P62995",6.6
same,PRISMA enrichment of interactor (log2),"TRMT5, Q32P41",4.45
same,PRISMA enrichment of interactor (log2),"UTP18, Q9Y5J1",4.56
IVLPLDARHVLGLGA [RP11-644F5.11],PRISMA enrichment of interactor (log2),"API5, Q9BZZ5",6.33
same,PRISMA enrichment of interactor (log2),"CAMP, P49913",6.42
same,PRISMA enrichment of interactor (log2),"CPS1, P31327",5.17
same,PRISMA enrichment of interactor (log2),"CSDE1, O75534",4.83
same,PRISMA enrichment of interactor (log2),"EIF1AD, Q8N9N8",4.02
same,PRISMA enrichment of interactor (log2),"GNL1, P36915",4.8
same,PRISMA enrichment of interactor (log2),"GRWD1, Q9BQ67",6.07
same,PRISMA enrichment of interactor (log2),"LARP7, Q4G0J3",6.42
same,PRISMA enrichment of interactor (log2),"NEK7, Q8TDX7",8.33
same,PRISMA enrichment of interactor (log2),"PHF8, Q9UPP1",4.44
same,PRISMA enrichment of interactor (log2),"SNRNP200, O75643",5.15
same,PRISMA enrichment of interactor (log2),"SNRPF, P62306",4.74
same,PRISMA enrichment of interactor (log2),"SRSF9, Q13242",5.55
same,PRISMA enrichment of interactor (log2),"TMEM11, P17152",8.59
same,PRISMA enrichment of interactor (log2),"TRPT1, Q86TN4",3.6
same,PRISMA enrichment of interactor (log2),"UBAP2, Q5T6F2",4.73
same,PRISMA enrichment of interactor (log2),"UBE2N, P61088",7.81
same,PRISMA enrichment of interactor (log2),"UTP11, Q9Y3A2",5.79
GLECSLGRRASTCSP [SNHG8],PRISMA enrichment of interactor (log2),"APLP2, Q06481",4.87
same,PRISMA enrichment of interactor (log2),"CDCA7, Q9BWT1",4.34
same,PRISMA enrichment of interactor (log2),"DDX1, Q92499",5.89
same,PRISMA enrichment of interactor (log2),"EIF2B2, P49770",6.72
same,PRISMA enrichment of interactor (log2),"EIF2D, P41214",4.18
same,PRISMA enrichment of interactor (log2),"EMD, P50402",4.73
same,PRISMA enrichment of interactor (log2),"MCM2, P49736",5.01
same,PRISMA enrichment of interactor (log2),"MDN1, Q9NU22",4.4
same,PRISMA enrichment of interactor (log2),"MRPL49, Q13405",5.12
same,PRISMA enrichment of interactor (log2),"RBM12B, Q8IXT5",5.17
same,PRISMA enrichment of interactor (log2),"SMC3, Q9UQE7",4.53
same,PRISMA enrichment of interactor (log2),"ZNHIT6, Q9NWK9",4.1

# For reference, some entries already given:
binder,measurement,setting,value
HGSSFSHKSRNATDY [RP11-12K22.1],PRISMA enrichment of interactor (log2),"SRSF7, Q16629",6.73
same,PRISMA enrichment of interactor (log2),"TAF15, Q92804",4.88
